Common to all, as to assay: co-IP; endogenous proteins in lysates of 15-day-old rat primary cortical neurons treated with TG for 10 min; lysate buffer pH 7.5, 50 mM Tris-HCl, 150 mM NaCl, 0.1% SDS, 0.5% sodium deoxycholate, 1% NP-40; antibody (anti-STIM1, anti-STIM2, anti-GluA1 or anti-GluA2) on protein A-Sepharose, overnight at 4°C; Western blot; controls: lysate omitted, anti-Flag, IgG
(In general: A western blot detects proteins with antibodies after separation by electrophoresis.)

Chains of the proteins cited; added tags and fusions are not shown. Residues count along the entry.
UniProt P19490, residues 19-907: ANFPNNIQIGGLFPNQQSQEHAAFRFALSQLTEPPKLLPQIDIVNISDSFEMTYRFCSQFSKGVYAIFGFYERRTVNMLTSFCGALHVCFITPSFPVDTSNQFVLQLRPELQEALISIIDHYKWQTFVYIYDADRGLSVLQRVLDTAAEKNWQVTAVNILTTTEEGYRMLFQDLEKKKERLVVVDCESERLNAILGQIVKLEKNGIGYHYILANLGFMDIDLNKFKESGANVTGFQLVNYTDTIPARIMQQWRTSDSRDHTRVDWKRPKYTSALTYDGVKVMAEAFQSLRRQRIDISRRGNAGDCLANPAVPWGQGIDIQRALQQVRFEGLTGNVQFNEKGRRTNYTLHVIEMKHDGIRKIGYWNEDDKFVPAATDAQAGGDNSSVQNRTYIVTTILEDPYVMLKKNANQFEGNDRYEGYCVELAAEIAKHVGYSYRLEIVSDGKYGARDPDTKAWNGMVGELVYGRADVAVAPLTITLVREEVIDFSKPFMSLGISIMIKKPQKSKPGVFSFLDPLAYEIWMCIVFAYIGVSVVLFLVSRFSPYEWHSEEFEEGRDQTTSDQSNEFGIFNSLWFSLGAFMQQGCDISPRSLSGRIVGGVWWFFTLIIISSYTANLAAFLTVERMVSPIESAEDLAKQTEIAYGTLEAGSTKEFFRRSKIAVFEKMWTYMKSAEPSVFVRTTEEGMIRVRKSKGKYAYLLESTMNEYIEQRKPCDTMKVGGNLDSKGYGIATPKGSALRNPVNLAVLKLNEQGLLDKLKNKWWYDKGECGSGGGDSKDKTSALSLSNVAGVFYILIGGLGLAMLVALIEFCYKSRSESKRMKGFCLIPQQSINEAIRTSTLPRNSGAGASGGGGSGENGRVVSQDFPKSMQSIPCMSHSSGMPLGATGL
UniProt P19491, residues 22-883: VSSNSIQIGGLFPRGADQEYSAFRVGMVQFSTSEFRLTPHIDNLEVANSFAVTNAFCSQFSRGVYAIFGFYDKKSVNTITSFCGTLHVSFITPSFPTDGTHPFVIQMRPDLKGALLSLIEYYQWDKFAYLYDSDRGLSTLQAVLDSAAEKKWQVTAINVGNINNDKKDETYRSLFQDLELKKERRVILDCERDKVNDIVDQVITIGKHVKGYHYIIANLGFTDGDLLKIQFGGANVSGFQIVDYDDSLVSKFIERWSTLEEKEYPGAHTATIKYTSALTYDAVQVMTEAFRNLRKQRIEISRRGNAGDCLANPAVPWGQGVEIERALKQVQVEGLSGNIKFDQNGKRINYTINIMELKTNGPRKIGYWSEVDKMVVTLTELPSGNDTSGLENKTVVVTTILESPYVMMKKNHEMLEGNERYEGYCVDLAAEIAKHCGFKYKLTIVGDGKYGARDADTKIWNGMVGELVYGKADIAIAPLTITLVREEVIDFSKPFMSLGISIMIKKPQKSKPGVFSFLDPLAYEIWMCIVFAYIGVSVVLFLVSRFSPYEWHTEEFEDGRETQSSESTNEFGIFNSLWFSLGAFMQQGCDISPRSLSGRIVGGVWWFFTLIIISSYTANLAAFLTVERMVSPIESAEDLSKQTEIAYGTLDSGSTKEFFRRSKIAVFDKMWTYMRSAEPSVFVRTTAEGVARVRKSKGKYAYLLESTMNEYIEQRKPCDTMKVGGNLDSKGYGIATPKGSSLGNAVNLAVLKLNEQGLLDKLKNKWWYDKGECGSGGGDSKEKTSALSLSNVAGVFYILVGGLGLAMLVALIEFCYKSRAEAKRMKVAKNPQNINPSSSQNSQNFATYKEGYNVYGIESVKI
UniProt P84903, residues 23-685: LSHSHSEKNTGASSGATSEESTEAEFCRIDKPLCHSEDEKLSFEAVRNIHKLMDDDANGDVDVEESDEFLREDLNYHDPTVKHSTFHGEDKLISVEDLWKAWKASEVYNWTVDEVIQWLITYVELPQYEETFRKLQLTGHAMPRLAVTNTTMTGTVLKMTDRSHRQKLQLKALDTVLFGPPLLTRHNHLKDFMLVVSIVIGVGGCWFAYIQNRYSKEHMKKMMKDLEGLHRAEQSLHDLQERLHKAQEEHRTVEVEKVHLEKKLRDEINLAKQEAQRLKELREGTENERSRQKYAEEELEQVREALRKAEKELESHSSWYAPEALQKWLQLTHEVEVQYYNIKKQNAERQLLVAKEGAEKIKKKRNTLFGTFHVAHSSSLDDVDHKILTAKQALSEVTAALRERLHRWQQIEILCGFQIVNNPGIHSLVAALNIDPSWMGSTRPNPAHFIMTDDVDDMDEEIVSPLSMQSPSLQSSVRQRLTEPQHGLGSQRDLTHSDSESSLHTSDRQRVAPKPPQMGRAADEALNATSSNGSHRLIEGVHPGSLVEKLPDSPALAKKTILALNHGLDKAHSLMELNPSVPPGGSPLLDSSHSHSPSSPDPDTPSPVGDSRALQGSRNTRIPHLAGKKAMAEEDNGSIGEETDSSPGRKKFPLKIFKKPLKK

Assay [1] addresses AMPA receptor subunit GluA1 (rat (endogenous in primary cortical neurons)) (UniProt P19490).
In assay [2] the target is AMPA receptor subunit GluA2 (rat (endogenous in primary cortical neurons)) (UniProt P19491).
Assay [3] addresses stromal interaction molecule 1 (STIM1) (rat (endogenous in primary cortical neurons)) (UniProt P84903).

No constants are given. Whether binding was seen depends on the method and setting. In cells and extracts the contact can be indirect. Some results given as binding are weak or reduced against the parent protein; the word gives no strength.

For “stromal interaction molecule 1 (STIM1) (from UniProt P84903 23-685)”, the binding result in assay [1] and in assay [2] was “binds” in each case. In the case of “AMPA receptor subunit GluA2 (from UniProt P19491 22-883)”, the binding result in assay [3] is “binds”.

In the case of “AMPA receptor subunit GluA1 (from UniProt P19490 19-907)”, the binding entry in assay [3] is on record as “binds”.
